Assay results: paper PMC9505868
These are yes or no findings as the source states them, for the method shown. For some assays here: In cells and extracts the contact can be indirect. Some results given as binding are weak or reduced against the parent protein; the word gives no strength. For some assays here: Tags and fused reporters may be left off the sequences shown.

Chains of the proteins cited; added tags and fusions are not shown. Residues count along the entry.
UniProt Q05320, residues 33-676: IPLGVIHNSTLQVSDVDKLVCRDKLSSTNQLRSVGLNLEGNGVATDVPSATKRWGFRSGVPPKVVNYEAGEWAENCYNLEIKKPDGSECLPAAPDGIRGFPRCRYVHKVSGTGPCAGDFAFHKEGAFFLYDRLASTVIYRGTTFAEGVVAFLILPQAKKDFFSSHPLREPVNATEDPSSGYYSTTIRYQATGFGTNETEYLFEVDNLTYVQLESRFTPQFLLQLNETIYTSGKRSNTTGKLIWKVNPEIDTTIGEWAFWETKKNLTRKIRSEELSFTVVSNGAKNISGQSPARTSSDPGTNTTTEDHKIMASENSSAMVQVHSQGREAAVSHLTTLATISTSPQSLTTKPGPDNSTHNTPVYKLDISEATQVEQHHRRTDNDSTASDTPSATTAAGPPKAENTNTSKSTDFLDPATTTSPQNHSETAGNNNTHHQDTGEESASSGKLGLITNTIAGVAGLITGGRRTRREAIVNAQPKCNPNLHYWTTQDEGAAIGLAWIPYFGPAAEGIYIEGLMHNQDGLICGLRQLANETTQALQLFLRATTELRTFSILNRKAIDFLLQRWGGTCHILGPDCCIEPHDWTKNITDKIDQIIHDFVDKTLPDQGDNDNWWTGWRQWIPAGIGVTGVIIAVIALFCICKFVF
UniProt Q05128: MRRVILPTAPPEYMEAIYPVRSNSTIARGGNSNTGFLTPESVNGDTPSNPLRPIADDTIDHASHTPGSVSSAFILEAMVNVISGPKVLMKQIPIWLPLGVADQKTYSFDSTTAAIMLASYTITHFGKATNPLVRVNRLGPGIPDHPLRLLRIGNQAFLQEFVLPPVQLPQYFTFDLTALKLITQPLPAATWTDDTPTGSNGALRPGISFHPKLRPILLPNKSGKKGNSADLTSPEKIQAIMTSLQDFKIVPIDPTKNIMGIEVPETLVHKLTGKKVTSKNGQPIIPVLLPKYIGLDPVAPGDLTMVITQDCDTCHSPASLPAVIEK

How the values were obtained:
[1] = target: Ebola virus glycoprotein GP (Ebola virus (EBOV)) (UniProt Q05320); assay: proximity ligation
[2] = target: Maltose binding protein (MBP)-tagged VP40 (Ebola virus (EBOV)) (UniProt Q05128); assay: pull-down; both purified

| Binder | binding [1] | binding [2] |
| --- | --- | --- |
| macrophage-capping protein (CAPG) (protein, UniProt P40121-1 1-348) MYTAIPQSGSPFPGSVQDPGLHVWRVEKLKPVPVAQENQGVFFSGDSYLVLHNGPEEVSHLHLWIGQQSSRDEQGACAVLAVHLNTLLGERPVQHREVQGNESDLFMSYFPRGLKYQEGGVESAFHKTSTGAPAAIKKLYQVKGKKNIRATERALNWDSFNTGDCFILDLGQNIFAWCGGKSNILERNKARDLALAIRDSERQGKAQVEIVTDGEEPAEMIQVLGPKPALKEGNPEEDLTADKANAQAAALYKVSDATGQMNLTKVADSSPFALELLISDDCFVLDNGLCGKIYIWKGRKANEKERQAALQVAEGFISRMQYAPNTQVEILPQGHESPIFKQFFKDWK | binds |  |
| His6-tagged CAPG (protein, UniProt P40121-1 1-348) MYTAIPQSGSPFPGSVQDPGLHVWRVEKLKPVPVAQENQGVFFSGDSYLVLHNGPEEVSHLHLWIGQQSSRDEQGACAVLAVHLNTLLGERPVQHREVQGNESDLFMSYFPRGLKYQEGGVESAFHKTSTGAPAAIKKLYQVKGKKNIRATERALNWDSFNTGDCFILDLGQNIFAWCGGKSNILERNKARDLALAIRDSERQGKAQVEIVTDGEEPAEMIQVLGPKPALKEGNPEEDLTADKANAQAAALYKVSDATGQMNLTKVADSSPFALELLISDDCFVLDNGLCGKIYIWKGRKANEKERQAALQVAEGFISRMQYAPNTQVEILPQGHESPIFKQFFKDWK |  | no binding (tested: 1 mg/mL) |
